Measurements reported in PubChem BioAssay AID743454 (Peter MacCallum Cancer Centre, 2014)
Here is a random part of about 18,000 reagents. Of all reagents, 450 (2.5%) got an active call. 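Single biological run; no consistent viability z cut-off exists, so the class columns, not z-scores, define the calls.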 Entries without a mark were called inactive.

Aim: 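Search for knock-downs that restore vorinostat killing in resistant colon cancer cells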 (primary screen)
Cell system: human HCT116-VR colon cancer cells, selected for vorinostat resistance
Reagents: siRNA pool against human genes, 40 nM siRNA pool
Duration: vorinostat for 24 h, read-out about 72 h after transfection
Challenge: vorinostat at 2.5 µM final
Read-out: 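Two measures, CellTiter-Fluor viability and luminescent caspase 3/7 activity, each as fold change against same-plate mock wells, mean of duplicates, then screen-wide robust z-score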
Direction: viability robust z-score: higher = more viable cells than screen typical; caspase robust z-score: higher = more caspase 3/7 activity than screen typical
Rule for the call: 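a knock-down is a hit when classed RV1 or RV2 for lowered viability, or CA1 or CA2 for caspase activation; those lethal without drug were dropped; hits were retested singly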

target gene,viability hit class,caspase hit class,viability robust z-score,caspase robust z-score
MAGEA3 (MAGE family member A3),no change,no change,0.52,-0.16
PRAMEF3 (retired record),no change,no change,0.24,-0.75
ARHGEF11 (Rho guanine nucleotide exchange factor 11),no change,no change,0.32,-0.45
CSGALNACT2 (chondroitin sulfate N-acetylgalactosaminyltransferase 2),no change,no change,0.42,-0.94
RCC1L (RCC1 like),no change,no change,0.03,-0.16
APP (amyloid beta precursor protein),no change,no change,-0.2,0.76
ZNF761 (zinc finger protein 761),no change,no change,-0.88,-1.02
ATF7 (activating transcription factor 7),no change,no change,0,0.77
DHCR24 (24-dehydrocholesterol reductase),no change,no change,-1.71,-0.22
GTF2I (general transcription factor IIi),no change,no change,0.73,-0.33
C17orf75 (chromosome 17 open reading frame 75),no change,no change,-0.33,0.48
UXT (ubiquitously expressed prefoldin like chaperone),no change,no change,-1.16,0.43
IL1RAPL2 (interleukin 1 receptor accessory protein like 2),no change,no change,1.29,-0.44
KATNIP (katanin interacting protein),no change,no change,0.38,0.08
CFB (complement factor B),no change,no change,1.04,1.06
GALK2 (galactokinase 2),no change,no change,-0.32,-0.04
CFAP36 (cilia and flagella associated protein 36),no change,no change,-0.69,0.2
TP53INP2 (tumor protein p53 inducible nuclear protein 2),no change,no change,0.08,3.44
AP1S3 (adaptor related protein complex 1 subunit sigma 3),no change,no change,1.21,-0.66
EXOSC4 (exosome component 4),no change,no change,-0.08,-0.18
GLRB (glycine receptor beta),no change,no change,0.42,-0.61
SLC35A3,no change,no change,-1.05,-0.6
KCNC4 (potassium voltage-gated channel subfamily C member 4),no change,no change,0.35,1.19
